According to the supplement of paper PMC10077471:
In all, about 1,900 compounds were measured (“excess over highest single agent (ExcessHSA) synergy score, 6x6 matrix”: median about -83, lowest 2% from about -370 on). Some of the results follow.

system: NCI-H446; assay: excess over highest single agent (ExcessHSA) synergy score, 6x6 matrix; higher = less synergy (more negative = stronger synergy); settings: 72 h; CellTiter-Glo viability

| Structure (SMILES) | excess over highest single agent |
| --- | --- |
| Cn1cc(/C=C2\C(=O)Nc3cccnc32)c2ccccc21 + Cc1sc2c(c1C)C(c1ccc(Cl)cc1)=N[C@@H](CC(=O)OC(C)(C)C)c1nnc(C)n1-2 [NCGC00250412-19] | -119 |
| CN(C)c1nc(Cc2ccc(NC(=O)c3ccc(C(F)(F)F)cc3)cc2)nc(N(C)C)c1CC(=O)O + Cc1sc2c(c1C)C(c1ccc(Cl)cc1)=N[C@@H](CC(=O)OC(C)(C)C)c1nnc(C)n1-2 [NCGC00250412-19] | -14.1 |
| CC(C)OC(=O)C(C)(C)Oc1ccc(C(=O)c2ccc(Cl)cc2)cc1 + Cc1sc2c(c1C)C(c1ccc(Cl)cc1)=N[C@@H](CC(=O)OC(C)(C)C)c1nnc(C)n1-2 [NCGC00250412-19] | 57.2 |
| Clc1ccc2c(N3CCN(CCCN4CCN(c5ccnc6cc(Cl)ccc56)CC4)CC3)ccnc2c1 + Cc1sc2c(c1C)C(c1ccc(Cl)cc1)=N[C@@H](CC(=O)OC(C)(C)C)c1nnc(C)n1-2 [NCGC00250412-19] | -90 |
| CC(=O)c1c(C)c2cnc(Nc3ccc(N4CCNCC4)cn3)nc2n(C2CCCC2)c1=O + Cc1sc2c(c1C)C(c1ccc(Cl)cc1)=N[C@@H](CC(=O)OC(C)(C)C)c1nnc(C)n1-2 [NCGC00250412-19] | -14.9 |
| CCN1C[C@H](C)n2c(c(O)c3c(=O)n(Cc4ccc(F)c(Cl)c4)nc(C(=O)NC)c32)C1=O + Cc1sc2c(c1C)C(c1ccc(Cl)cc1)=N[C@@H](CC(=O)OC(C)(C)C)c1nnc(C)n1-2 [NCGC00250412-19] | -166 |
| O=C(Nc1nnc(-c2ccco2)o1)c1cc(-c2ccccc2)nc2ccccc12 + Cc1sc2c(c1C)C(c1ccc(Cl)cc1)=N[C@@H](CC(=O)OC(C)(C)C)c1nnc(C)n1-2 [NCGC00250412-19] | 33.7 |
| CCCCN(CCCC)CC(O)c1cc(Cl)cc2c1-c1ccc(Cl)cc1/C2=C/c1ccc(Cl)cc1 (stereo unspecified) + Cc1sc2c(c1C)C(c1ccc(Cl)cc1)=N[C@@H](CC(=O)OC(C)(C)C)c1nnc(C)n1-2 [NCGC00250412-19] | -129 |
| Cc1cn(-c2cc(NC(=O)c3ccc(C)c(Nc4nccc(-c5cccnc5)n4)c3)cc(C(F)(F)F)c2)cn1 + Cc1sc2c(c1C)C(c1ccc(Cl)cc1)=N[C@@H](CC(=O)OC(C)(C)C)c1nnc(C)n1-2 [NCGC00250412-19] | -3.24 |
| NC(=O)c1ccc(-c2nc(-c3ccccn3)c(-c3ccc4c(c3)OCO4)[nH]2)cc1 + Cc1sc2c(c1C)C(c1ccc(Cl)cc1)=N[C@@H](CC(=O)OC(C)(C)C)c1nnc(C)n1-2 [NCGC00250412-19] | 70.1 |
| Cc1c(-c2cccc3c(CCCOc4cccc5ccccc45)c(C(=O)O)n(Cc4cccnc4)c23)c(COc2ccc(N3CCN([S+](=O)([O-])N(C)C)CC3)cc2)nn1C + Cc1sc2c(c1C)C(c1ccc(Cl)cc1)=N[C@@H](CC(=O)OC(C)(C)C)c1nnc(C)n1-2 [NCGC00250412-19] | -37.3 |
| C/C(=C\c1csc(C)n1)[C@@H]1C[C@@H]2O[C@]2(C)CCC[C@H](C)[C@H](O)[C@@H](C)C(=O)C(C)(C)[C@@H](O)CC(=O)O1 + Cc1sc2c(c1C)C(c1ccc(Cl)cc1)=N[C@@H](CC(=O)OC(C)(C)C)c1nnc(C)n1-2 [NCGC00250412-19] | -148 |
| C[C@@H](O[C@H]1OCCN(Cc2n[nH]c(=O)[nH]2)[C@H]1c1ccc(F)cc1)c1cc(C(F)(F)F)cc(C(F)(F)F)c1 + Cc1sc2c(c1C)C(c1ccc(Cl)cc1)=N[C@@H](CC(=O)OC(C)(C)C)c1nnc(C)n1-2 [NCGC00250412-19] | -167 |
| C=C[C@H]1CN2CC[C@H]1C[C@@H]2[C@@H](O)c1ccnc2ccccc12 + Cc1sc2c(c1C)C(c1ccc(Cl)cc1)=N[C@@H](CC(=O)OC(C)(C)C)c1nnc(C)n1-2 [NCGC00250412-19] | 31.1 |
| CCCNC(=O)Nc1ccc(Oc2ncnc3cc(OC)c(OC)cc23)cc1Cl + Cc1sc2c(c1C)C(c1ccc(Cl)cc1)=N[C@@H](CC(=O)OC(C)(C)C)c1nnc(C)n1-2 [NCGC00250412-19] | -41.2 |
| CN(C)C(=O)[C@H](O)[C@H](Cc1ccccc1)NC(=O)c1cc2cc(Cl)ccc2[nH]1 + Cc1sc2c(c1C)C(c1ccc(Cl)cc1)=N[C@@H](CC(=O)OC(C)(C)C)c1nnc(C)n1-2 [NCGC00250412-19] | 121 |
| Cc1cc(CN2CCN(c3c(Br)cnc4nc(-c5ccc(N6CCN(C)CC6)cc5)[nH]c34)CC2)no1 + Cc1sc2c(c1C)C(c1ccc(Cl)cc1)=N[C@@H](CC(=O)OC(C)(C)C)c1nnc(C)n1-2 [NCGC00250412-19] | -107 |
| CC(C)CC(N(C)C)C1(c2ccc(Cl)cc2)CCC1 (stereo unspecified) + Cc1sc2c(c1C)C(c1ccc(Cl)cc1)=N[C@@H](CC(=O)OC(C)(C)C)c1nnc(C)n1-2 [NCGC00250412-19] | -129 |

| Structure (SMILES) | excess over highest single agent |
| --- | --- |
| COCCCN1CCC(NC(=O)c2cc(Cl)c(N)c3c2OCC3)CC1 + Cc1sc2c(c1C)C(c1ccc(Cl)cc1)=N[C@@H](CC(=O)OC(C)(C)C)c1nnc(C)n1-2 [NCGC00250412-19] | -101 |
| C[C@@H](O)[C@@H]1NC(=O)[C@H](CCCCN)NC(=O)[C@@H](Cc2c[nH]c3ccccc23)NC(=O)[C@H](Cc2ccccc2)NC(=O)[C@@H](NC(=O)[C@H](N)Cc2ccccc2)CSSC[C@@H](C(=O)N[C@H](CO)[C@@H](C)O)NC1=O + Cc1sc2c(c1C)C(c1ccc(Cl)cc1)=N[C@@H](CC(=O)OC(C)(C)C)c1nnc(C)n1-2 [NCGC00250412-19] | -219 |
| C[C@H](CCC(=O)O)[C@H]1CC[C@H]2[C@@H]3[C@@H](O)C[C@@H]4C[C@H](O)CC[C@]4(C)[C@H]3CC[C@]12C + Cc1sc2c(c1C)C(c1ccc(Cl)cc1)=N[C@@H](CC(=O)OC(C)(C)C)c1nnc(C)n1-2 [NCGC00250412-19] | -19.3 |
| CCNc1cc(NC2CCC(O)CC2)nc(Nc2ccc3c(ccn3Cc3ccccc3)c2)n1 (stereo unspecified) + Cc1sc2c(c1C)C(c1ccc(Cl)cc1)=N[C@@H](CC(=O)OC(C)(C)C)c1nnc(C)n1-2 [NCGC00250412-19] | -94 |
| Cc1ccc(F)c(NC(=O)Nc2ccc(-c3cccc4[nH]nc(N)c34)cc2)c1 + Cc1sc2c(c1C)C(c1ccc(Cl)cc1)=N[C@@H](CC(=O)OC(C)(C)C)c1nnc(C)n1-2 [NCGC00250412-19] | -96.9 |
| CCC(=C/[C@H](C)C/C=C/C(C)=C/[C@@H](C)C(=O)[C@@H](C)[C@H](O)[C@@H](C)C/C(C)=C/C(=O)O)/C=C/[C@@H]1OC(=O)C=C[C@@H]1C + Cc1sc2c(c1C)C(c1ccc(Cl)cc1)=N[C@@H](CC(=O)OC(C)(C)C)c1nnc(C)n1-2 [NCGC00250412-19] | -29.3 |
| CC(C)OC(=O)C1=CN(C(=O)c2ccc(F)c(F)c2)CC(C)(C)c2c1[nH]c1ccccc21 + Cc1sc2c(c1C)C(c1ccc(Cl)cc1)=N[C@@H](CC(=O)OC(C)(C)C)c1nnc(C)n1-2 [NCGC00250412-19] | -106 |
| COC(=O)[C@@H]1CC2=CC(=O)CC[C@]2(C)[C@@]23O[C@@H]2C[C@@]2(C)[C@@H](CC[C@@]24CCC(=O)O4)[C@H]13 + Cc1sc2c(c1C)C(c1ccc(Cl)cc1)=N[C@@H](CC(=O)OC(C)(C)C)c1nnc(C)n1-2 [NCGC00250412-19] | 47.5 |
| NC(=O)c1nnn(Cc2cc(Cl)c(C(=O)c3ccc(Cl)cc3)c(Cl)c2)c1N + Cc1sc2c(c1C)C(c1ccc(Cl)cc1)=N[C@@H](CC(=O)OC(C)(C)C)c1nnc(C)n1-2 [NCGC00250412-19] | -2.84 |
| CC(C)(C)[N+]([O-])=Cc1ccc(S(=O)(=O)O)cc1S(=O)(=O)O + Cc1sc2c(c1C)C(c1ccc(Cl)cc1)=N[C@@H](CC(=O)OC(C)(C)C)c1nnc(C)n1-2 [NCGC00250412-19] | -60 |
| Cc1ccc(NC(=O)c2cccc(C(C)(C)C#N)c2)cc1Nc1ccc2ncn(C)c(=O)c2c1 + Cc1sc2c(c1C)C(c1ccc(Cl)cc1)=N[C@@H](CC(=O)OC(C)(C)C)c1nnc(C)n1-2 [NCGC00250412-19] | 98.6 |
| OCCN(CCO)c1nc(N2CCCCC2)c2nc(N(CCO)CCO)nc(N3CCCCC3)c2n1 + Cc1sc2c(c1C)C(c1ccc(Cl)cc1)=N[C@@H](CC(=O)OC(C)(C)C)c1nnc(C)n1-2 [NCGC00250412-19] | 73.2 |
| CC[C@H](CO)Nc1nc(NCc2ccccc2)c2ncn(C(C)C)c2n1 + Cc1sc2c(c1C)C(c1ccc(Cl)cc1)=N[C@@H](CC(=O)OC(C)(C)C)c1nnc(C)n1-2 [NCGC00250412-19] | -86 |
| CN(c1nccc(=O)[nH]1)C1CCN(c2nc3ccccc3n2Cc2ccc(F)cc2)CC1 + Cc1sc2c(c1C)C(c1ccc(Cl)cc1)=N[C@@H](CC(=O)OC(C)(C)C)c1nnc(C)n1-2 [NCGC00250412-19] | -37.9 |
| C[N+](C)(C)CC(=O)O + Cc1sc2c(c1C)C(c1ccc(Cl)cc1)=N[C@@H](CC(=O)OC(C)(C)C)c1nnc(C)n1-2 [NCGC00250412-19] | 11.6 |
| O=c1[nH]c2ccccc2n1CCCN1CCC(n2c(=O)[nH]c3cc(Cl)ccc32)CC1 + Cc1sc2c(c1C)C(c1ccc(Cl)cc1)=N[C@@H](CC(=O)OC(C)(C)C)c1nnc(C)n1-2 [NCGC00250412-19] | -247 |
| CC(C)OC(=O)OCOP(=O)(CO[C@H](C)Cn1cnc2c(N)ncnc21)OCOC(=O)OC(C)C + Cc1sc2c(c1C)C(c1ccc(Cl)cc1)=N[C@@H](CC(=O)OC(C)(C)C)c1nnc(C)n1-2 [NCGC00250412-19] | -70.6 |
| C#C[C@]1(O)CC[C@H]2[C@@H]3CCC4=CC(=O)CC[C@]4(C)[C@H]3CC[C@@]21C + Cc1sc2c(c1C)C(c1ccc(Cl)cc1)=N[C@@H](CC(=O)OC(C)(C)C)c1nnc(C)n1-2 [NCGC00250412-19] | -97.6 |

Individual results from the entries so far.
excess over highest single agent, CC[C@H](CO)Nc1nc(NCc2ccccc2)c2ncn(C(C)C)c2n1 + Cc1sc2c(c1C)C(c1ccc(Cl)cc1)=N[C@@H](CC(=O)OC(C)(C)C)c1nnc(C)n1-2 [NCGC00250412-19] reads -86
excess over highest single agent, NC(=O)c1nnn(Cc2cc(Cl)c(C(=O)c3ccc(Cl)cc3)c(Cl)c2)c1N + Cc1sc2c(c1C)C(c1ccc(Cl)cc1)=N[C@@H](CC(=O)OC(C)(C)C)c1nnc(C)n1-2 [NCGC00250412-19] reads -2.84
